According to the supplement of paper PMC12823440, “Inhibitors supercharge kinase turnover through native proteolytic circuits” (Nature, 2025):
Counter-ions that a name gives are not always drawn. The list shows a part of the results. Hit calls seldom repeat between salt and free forms of one compound.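 Kinases were expressed as nanoluciferase fusions in K562 cells and luminescence was read every 4 h between 2 and 18 h as percent of control, DMSO set to 100% and a positive control to 0%. A time point counts as decreased when the signal drops significantly (2 sigma). The hit call is the authors' own, does not follow from the count of time points alone, and its rule is not shown.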

Chains of the proteins cited; added tags and fusions are not shown. Lines headed by an entry give the natural chain unless they say otherwise; changes in a name come on top.
UniProt Q13131: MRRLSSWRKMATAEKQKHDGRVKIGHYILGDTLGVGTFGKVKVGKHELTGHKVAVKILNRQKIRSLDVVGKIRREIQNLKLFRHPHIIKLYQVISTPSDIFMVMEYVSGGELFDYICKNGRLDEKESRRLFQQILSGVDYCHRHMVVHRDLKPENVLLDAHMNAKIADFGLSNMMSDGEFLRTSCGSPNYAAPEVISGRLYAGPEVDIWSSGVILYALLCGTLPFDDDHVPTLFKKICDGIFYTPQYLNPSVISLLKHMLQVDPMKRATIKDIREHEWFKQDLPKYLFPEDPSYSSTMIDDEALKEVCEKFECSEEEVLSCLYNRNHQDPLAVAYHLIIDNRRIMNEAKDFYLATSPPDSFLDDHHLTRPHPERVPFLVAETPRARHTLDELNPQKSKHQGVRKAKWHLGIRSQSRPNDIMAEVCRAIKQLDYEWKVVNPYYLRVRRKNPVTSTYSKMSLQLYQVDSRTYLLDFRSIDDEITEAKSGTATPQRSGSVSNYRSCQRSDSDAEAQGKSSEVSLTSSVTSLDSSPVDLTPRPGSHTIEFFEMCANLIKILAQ

These compounds were tested against PRKAA1 (UniProt Q13131) (assay: kinase-Nluc reporter destabilization hit call (1 = scored as downregulated) (binary); higher = compound decreases kinase abundance). Conditions: K562; 2-18 h.

SMILES | kinase-Nluc reporter destabilization hit call
FC(F)(c1ccc2ncccc2c1)c1nnc2ccc(-c3ccncc3)nn12 (10 µM) | inactive: 0
O=C1NC(=O)/C(=C\c2cccc(C(F)(F)F)c2)S1 (2.5 µM) | inactive: 0
N#CCC1CCN(c2nc(Nc3ccc(N4CCC(O)CC4)cc3)c3c(=O)[nH]ncc3n2)CC1 [Gusacitinib] (10 µM) | inactive: 0
Nc1ncnc2c1c(-c1cccc(OCc3ccccc3)c1)cn2C1CC(CN2CCC2)C1 (configuration not stated) (2.5 µM) | inactive: 0
CCNc1nc(Nc2cc(F)c(C(=O)N3CCOCC3)cc2OC)ncc1C(F)(F)F [GNE-7915 (tosylate)] (10 µM) | inactive: 0
Cn1cnc2c(F)c(Nc3ccc(Br)cc3Cl)c(C(=O)NOCCO)cc21 [Selumetinib] (10 µM) | inactive: 0
CCN1CCN(Cc2ccc(-c3cc4c(N[C@H](C)c5ccccc5)ncnc4[nH]3)cc2)CC1 (2.5 µM) | inactive: 0
O=C(N/N=C/c1coc2ccccc2c1=O)c1cccnc1 (10 µM) | inactive: 0
O=Nc1c(-c2c(O)[nH]c3ccc(F)cc23)[nH]c2ccccc12 [5'-Fluoroindirubinoxime] (10 µM) | inactive: 0
CC(=O)NC1CC(n2cnc(NC(=O)Cc3ccc4ccccc4c3)c2)C1 (configuration not stated) (10 µM) | inactive: 0
O=C(CSC1=NCCN1)NC1CCCCCC1 [ICCB-19 (hydrochloride)] (2.5 µM) | inactive: 0
N#Cc1c(C2CCNCC2)cc(-c2c(O)cccc2OCC2CC2)nc1N [ACHP (Hydrochloride)] (10 µM) | inactive: 0

Quoted at random: 2 compounds from above.
SMILES | kinase-Nluc reporter destabilization hit call
O=Nc1c(-c2c(O)[nH]c3ccc(F)cc23)[nH]c2ccccc12 [5'-Fluoroindirubinoxime] (10 µM) | inactive: 0
CCN1CCN(Cc2ccc(-c3cc4c(N[C@H](C)c5ccccc5)ncnc4[nH]3)cc2)CC1 (2.5 µM) | inactive: 0
